{"source": "patent US10280209B2", "about": "(YISSUM RESEARCH DEVELOPMENT COMPANY OF THE HEBREW …, priority 2013, dated 2019)", "test_system": "adjuvant arthritis", "experiment": "Adjuvant arthritis model", "type": "in vivo, rat", "conditions": "rats", "note": "At least one compound was matched to its structure with a doubt left."}
{"smiles": "C[C@@H]1C[C@H]2[C@@H]3CCC4=CC(=O)C=C[C@]4(C)[C@@]3(F)[C@@H](O)C[C@]2(C)[C@@]1(O)C(=O)CO", "note": "[dexamethasone, reference compound]", "values": [{"measurement": "disease symptoms during treatment, up to day 15", "setting": "IV, dexamethasone daily days 10-15, peptides 100 μg daily days 1-15", "value": "suppressed almost in full"}, {"measurement": "disease symptoms after termination of therapy on day 15", "setting": "two-week period after termination of treatment", "value": "prompt and essentially complete rebound to maximal disease symptoms"}]}
